Publication doi:10.1101/2021.02.17.431740
No constants are given. Whether binding was seen depends on the method and setting. In cells and extracts the contact can be indirect. Some results given as binding are weak or reduced against the parent protein; the word gives no strength. For part of these data: Sequences can lack the tags named with a protein.

Chains of the proteins cited; added tags and fusions are not shown. Lines headed by an entry give the natural chain unless they say otherwise; changes in a name come on top.
UniProt Q14289, whole entry: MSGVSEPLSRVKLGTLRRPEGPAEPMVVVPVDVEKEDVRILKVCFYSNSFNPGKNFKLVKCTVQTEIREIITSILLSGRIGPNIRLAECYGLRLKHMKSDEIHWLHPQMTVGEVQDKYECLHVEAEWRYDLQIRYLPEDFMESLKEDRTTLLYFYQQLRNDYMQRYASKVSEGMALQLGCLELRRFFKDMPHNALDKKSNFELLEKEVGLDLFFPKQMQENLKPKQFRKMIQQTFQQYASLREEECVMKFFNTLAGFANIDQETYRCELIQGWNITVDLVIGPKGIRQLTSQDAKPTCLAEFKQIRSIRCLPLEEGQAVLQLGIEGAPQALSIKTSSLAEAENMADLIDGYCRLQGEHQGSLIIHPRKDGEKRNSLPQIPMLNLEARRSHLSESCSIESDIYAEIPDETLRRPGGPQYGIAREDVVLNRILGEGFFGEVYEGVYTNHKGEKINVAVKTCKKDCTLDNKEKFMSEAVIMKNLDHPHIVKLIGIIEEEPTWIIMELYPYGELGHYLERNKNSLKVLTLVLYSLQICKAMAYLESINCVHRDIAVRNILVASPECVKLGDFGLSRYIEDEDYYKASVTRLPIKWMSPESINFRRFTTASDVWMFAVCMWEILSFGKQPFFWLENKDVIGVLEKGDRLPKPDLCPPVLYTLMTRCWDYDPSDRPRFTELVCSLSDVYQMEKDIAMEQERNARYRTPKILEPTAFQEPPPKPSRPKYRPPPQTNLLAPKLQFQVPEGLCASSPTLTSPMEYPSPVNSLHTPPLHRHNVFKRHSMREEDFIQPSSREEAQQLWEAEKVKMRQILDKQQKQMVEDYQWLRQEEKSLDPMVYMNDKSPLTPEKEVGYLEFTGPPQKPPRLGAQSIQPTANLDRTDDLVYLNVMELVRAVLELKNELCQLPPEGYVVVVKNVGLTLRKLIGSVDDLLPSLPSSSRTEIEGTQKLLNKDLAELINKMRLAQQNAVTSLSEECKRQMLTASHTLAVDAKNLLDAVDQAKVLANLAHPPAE

Legend:
[1] = biological target: T1, HA-tagged WT PEAK3 (HEK293 cells) (UniProt Q6ZS72); test: co-IP
T1 sequence: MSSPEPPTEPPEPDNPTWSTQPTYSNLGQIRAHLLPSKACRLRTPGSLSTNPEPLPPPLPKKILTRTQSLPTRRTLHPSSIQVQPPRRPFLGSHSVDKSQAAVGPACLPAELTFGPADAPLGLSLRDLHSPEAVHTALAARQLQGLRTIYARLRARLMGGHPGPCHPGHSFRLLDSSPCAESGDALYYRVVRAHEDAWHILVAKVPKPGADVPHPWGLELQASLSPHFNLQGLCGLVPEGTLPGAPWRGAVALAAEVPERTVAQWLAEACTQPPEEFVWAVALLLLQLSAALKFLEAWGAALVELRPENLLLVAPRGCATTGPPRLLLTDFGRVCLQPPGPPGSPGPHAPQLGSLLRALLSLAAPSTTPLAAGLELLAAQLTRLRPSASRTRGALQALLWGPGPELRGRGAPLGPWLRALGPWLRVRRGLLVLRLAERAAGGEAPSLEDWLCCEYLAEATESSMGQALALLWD

[2] = biological target: HA-tagged PEAK3 SH3(2) mutant (DKO MCF-10A cells) (UniProt Q6ZS72); test: co-IP

Substance | binding [1] | binding [2]
EGFR (HEK293 cells) (from UniProt P00533 25-1210) (receptor) | binds | –
EGFR (MCF-10A cells) (from UniProt P00533 25-1210) (receptor) | – | binds
PYK2 (HEK293 cells) (from UniProt Q14289 1-1009) | binds | –
